Among the data in PubChem BioAssay AID256 (DTP/NCI, 2004) are T/C and survivor count values, retold here.

The list shows only some results of the screen, not a fair sample: it is rich in T/C values a quarter to a half above the control, in often repeated tests (any T/C) and in doses without a T/C. Other doses and runs of a compound stand elsewhere. T/C gives the treated animals as a percentage of the vehicle group. Some entries give survivors of the animals treated and no T/C: the source holds a T/C of zero for them, seemingly a mark for toxic or unscored doses. Some survivor counts are full or nearly so, which does not show that the dose was tolerated: the source hardly ever lists a survival T/C far under the control, and the zero likely stands for such cases as well. Counts of survivors are from the toxicity check (mostly the fifth day) where no day follows; animals may have died later. Schedule codes are those of the source, taken here to give the interval after Q, in days (D) or hours (H), and the number of doses after X. Some entries hold several experiments; the values are given in rising order. Some structures stand for samples that the source files as different forms (salt, stereo form or complex); doses refer to the form tested. Where survival is the endpoint, the PubChem record calls one and a half times the control and up active, and a quarter to a half above the control has no call in these data; cut-offs in other NCI protocols can differ. Counts like (3×) say how often a value occurs here.

This test concerns CD2F1 mice, L1210 leukemia ip, survival T/C. Nature of the test: NCI In Vivo Anticancer Drug Screen. Data for tumor model L1210 Leukemia (intraperitoneal) in CD2F1 (CDF1) mice. Particulars: higher T/C = longer survival. The procedure, abridged: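 Implant tumor; dose compound or vehicle; measure endpoint in both groups; report treated divided by control.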
Setting [1] is: T/C endpoint: mean survival time, dose: 50.0 mg/kg/injection, schedule: Q04DX003 (ip), vehicle: saline.
Where [2] appears, read: T/C endpoint: mean survival time, dose: 200.0 mg/kg/injection, schedule: Q01DX009 (ip), vehicle: saline.
[3] abbreviates: T/C endpoint: mean survival time, dose: 100.0 mg/kg/injection, schedule: Q01DX009 (ip), vehicle: saline with Tween-80.
Setting [4] is: T/C endpoint: mean survival time, dose: 200.0 mg/kg/injection, schedule: Q04DX003 (ip), vehicle: saline with Tween-80.
The mark [5] stands for this setting: T/C endpoint: mean survival time, dose: 400.0 mg/kg/injection, schedule: Q04DX003 (ip), vehicle: saline with Tween-80.
[6] abbreviates: T/C endpoint: mean survival time, dose: 200.0 mg/kg/injection, schedule: Q04DX002 (ip), vehicle: saline with Tween-80.
The mark [7] stands for this setting: T/C endpoint: mean survival time, dose: 400.0 mg/kg/injection, schedule: Q04DX002 (ip), vehicle: saline with Tween-80.
Setting [8] is: T/C endpoint: median survival time, dose: 400.0 mg/kg/injection, schedule: Q01DX009 (ip), vehicle: saline with Tween-80.
[9] abbreviates: T/C endpoint: mean survival time, dose: 400.0 mg/kg/injection, schedule: Q01DX001 (ip), vehicle: saline with Tween-80.
Where [10] appears, read: T/C endpoint: mean survival time, dose: 50.0 mg/kg/injection, schedule: Q01DX009 (ip), vehicle: saline with Tween-80.
[11] abbreviates: T/C endpoint: mean survival time, dose: 200.0 mg/kg/injection, schedule: Q01DX009 (ip), vehicle: saline with Tween-80.
Where [12] appears, read: T/C endpoint: mean survival time, dose: 400.0 mg/kg/injection, schedule: Q01DX009 (ip), vehicle: saline with Tween-80.

For `CCCCN(CCCC)CCCN(CCCOS(C)(=O)=O)CCCOS(C)(=O)=O`, the T/C is 129 % of control (T/C endpoint: mean survival time, dose: 25.0 mg/kg/injection, schedule: Q01DX009 (ip), vehicle: saline); 130 % of control (T/C endpoint: mean survival time, dose: 50.0 mg/kg/injection, schedule: Q01DX001 (ip), vehicle: saline); 133 % of control under setting [1]; 145 % of control (T/C endpoint: mean survival time, dose: 75.0 mg/kg/injection, schedule: Q04DX003 (ip), vehicle: saline); 142 % of control (T/C endpoint: mean survival time, dose: 100.0 mg/kg/injection, schedule: Q01DX001 (ip), vehicle: saline); 128 % of control (T/C endpoint: mean survival time, dose: 150.0 mg/kg/injection, schedule: Q04DX003 (ip), vehicle: saline). In addition, the survivor count under setting [2] is 0 of 6 and the survivor count (T/C endpoint: mean survival time, dose: 200.0 mg/kg/injection, schedule: Q04DX003 (ip), vehicle: saline) is 4 of 6.
For `N#Cc1cccc[n+]1Cc1ccc([N+](=O)[O-])cc1`, under setting [3], the survivor count is on record as 3 of 6.
For `CCCCCCCCCCCC(=O)NC1CC(O[C@H]2C[C@](O)(C(=O)CO)Cc3c(O)c4c(c(O)c32)C(=O)c2c(OC)cccc2C4=O)OC(C)C1O` (stereo partly drawn), the T/C was 125 % of control (T/C endpoint: mean survival time, dose: 12.0 mg/kg/injection, schedule: Q01DX009 (ip), vehicle: saline) and 125 % of control (T/C endpoint: mean survival time, dose: 48.0 mg/kg/injection, schedule: Q01DX009 (ip), vehicle: saline).
As for `CC(/C=N/N(C)C)=N\N(C)C`, the survivor count under setting [2] is listed as 0 of 6.
With `C=C(C)CN=C=S`, the survivor count was 0 of 6 under setting [4] and 0 of 6 under setting [5].
`O=C(N/N=C/c1ccc(O)cc1O)c1cccnc1`: for the setting “T/C endpoint: mean survival time, dose: 200.0 mg/kg/injection, schedule: Q01DX009 (ip), vehicle: olive oil, sesame oil, peanut oil”, the survivor count is on record as 3 of 6.
For the compound `Cc1ccc(C(=O)C=C(C(F)(F)F)C(F)(F)F)cc1`, the survivor count (T/C endpoint: mean survival time, dose: 100.0 mg/kg/injection, schedule: Q04DX003 (ip), vehicle: saline with Tween-80) is listed as 2 of 6; the survivor count under setting [4] was 2 of 6; the survivor count under setting [5] is given as 1 of 6.
Take `Clc1ccc(C2SC=Cc3ccccc32)cc1` (stereo not drawn): the survivor count was 0 of 10 (T/C endpoint: median survival time, dose: 400.0 mg/kg/injection, schedule: Q01DX009 (ip), vehicle: Klucel (hydroxypropylcellulose) (HPC)) and 0 of 10 (T/C endpoint: median survival time, dose: 800.0 mg/kg/injection, schedule: Q01DX009 (ip), vehicle: Klucel (hydroxypropylcellulose) (HPC)).
For `CC[C@@H](O)C[C@H]1CCC[C@@]2(C[C@@H]3OC(=O)/C=C/[C@@](C)(O)[C@@H](O)[C@H](C)[C@@H](O)[C@H](OC4CCC(N(C)C)C(C)O4)[C@@H](O)[C@](C)(O)CCCCC/C=C/[C@@H]4CC(C)(C)O[C@@]4(O)C[C@H](O2)[C@H]3C)O1` (stereo partly drawn), the survivor count was 2 of 6 (T/C endpoint: mean survival time, dose: 0.5 mg/kg/injection, schedule: Q01DX009 (ip), vehicle: saline) and 0 of 6 (T/C endpoint: mean survival time, dose: 1.0 mg/kg/injection, schedule: Q01DX009 (ip), vehicle: saline).
Turning to `O=C(O)C(O)C(O)C(=O)O.[NH-]C1CCCCCC1[NH-].[Pt+2]` (stereo not drawn), the T/C runs as follows: (T/C endpoint: mean survival time, dose: 5.0 mg/kg/injection, schedule: Q04DX003 (ip), vehicle: dextrose) 142 % of control; (T/C endpoint: mean survival time, dose: 10.0 mg/kg/injection, schedule: Q04DX003 (ip), vehicle: dextrose) 141 and 146 % of control. The survivor count (T/C endpoint: mean survival time, dose: 80.0 mg/kg/injection, schedule: Q04DX003 (ip), vehicle: dextrose) is on record as 4 of 6.
In the case of `CC(=O)CC(C)=O.CC(=O)CC(C)=O.CC(=O)CC(C)=O.CC(=O)CC(C)=O.[Hf]`, the survivor count under setting [5] is given as 3 of 6.
As to `CC1=C(NNS(=O)(=O)c2ccc(C)cc2)CCCC1=O`, the survivor count runs as follows: under setting [6], 3 of 3; under setting [7], 1 of 3.
Regarding `COc1cc([N+](=O)[O-])ccc1NC(=O)NCc1ccccc1`, the survivor count under setting [6] is 6 of 6.
Take `Nc1nc(N)c2cc(S(=O)(=O)c3ccccc3)ccc2n1`: the T/C was 134 % of control under setting [8] and 143 % of control (T/C endpoint: median survival time, dose: 800.0 mg/kg/injection, schedule: Q01DX009 (ip), vehicle: saline with Tween-80).
For `CC(=O)N(C)NC(=O)c1ccccn1`, the survivor count (T/C endpoint: mean survival time, dose: 100.0 mg/kg/injection, schedule: Q01DX009 (ip), vehicle: water) is 6 of 6 and the survivor count (T/C endpoint: mean survival time, dose: 400.0 mg/kg/injection, schedule: Q01DX009 (ip), vehicle: water) is 0 of 6.
For the compound `C=CC1CN2CCC1CC2C(O)c1ccnc2ccccc12` (stereo not drawn) (tested in a mixture with another compound), the survivor count is given as 5 of 6 under setting [4], 1 of 6 under setting [9] and 5 of 6 under setting [5].
Consider `CCOC(=O)/C=C/SCC(N)C(=O)OCC` (stereo not drawn), for which the survivor count is, setting by setting: (T/C endpoint: mean survival time, dose: 200.0 mg/kg/injection, schedule: Q01DX001 (ip), vehicle: saline) 2 of 6; (T/C endpoint: mean survival time, dose: 400.0 mg/kg/injection, schedule: Q01DX001 (ip), vehicle: saline) 2 of 6.
As for `CN(C)c1ccc(C(=O)CCN2CC=C(c3ccccc3)CC2)cc1`, the survivor count is, setting by setting: under setting [6], 0 of 3; under setting [7], 0 of 3.
As for `O=C(c1ccccc1[N+](=O)[O-])C(Br)C(Br)c1ccc(Cl)c(Cl)c1` (stereo not drawn), the survivor count is 3 of 3 under setting [10]; 3 of 3 under setting [3]; 0 of 3 and 4 of 6 under setting [11]; 3 of 6 under setting [9]; 0 of 6 and 1 of 3 under setting [12]; 1 of 6 under setting [5]. For the same compound, the T/C under setting [3] was 91 and 95 % of control (2×).
For `COc1ccc(S(=O)[O-])cc1.C[c-]1[c-][c-][c-][c-]1.[C-]#[O+].[C-]#[O+].[Fe+6]`, the survivor count (T/C endpoint: mean survival time, dose: 50.0 mg/kg/injection, schedule: Q04DX002 (ip), vehicle: other) was 0 of 3; the survivor count (T/C endpoint: mean survival time, dose: 100.0 mg/kg/injection, schedule: Q04DX002 (ip), vehicle: other) was 0 of 3; the survivor count (T/C endpoint: mean survival time, dose: 200.0 mg/kg/injection, schedule: Q04DX002 (ip), vehicle: other) is reported as 0 of 3.
On to `COP12(OCCO1)SC(C(F)(F)F)=C(C(F)(F)F)S2`, for which the survivor count under setting [10] is reported as 0 of 10; the survivor count under setting [3] is 0 of 10 and 0 of 6; the survivor count under setting [11] was 0 of 10 and 0 of 6; the survivor count under setting [12] is 0 of 10 and 0 of 6.
In the case of `COc1ccc2c(c1)N(CCC1CCCCN1C)c1ccccc1S2` (stereo not drawn), the T/C under setting [1] was 132 % of control.
For the compound `CC1(C)CC2(C)OC2C2(C1)N=NC(=Nc1ccccc1)O2` (stereo not drawn), the survivor count is, setting by setting: (T/C endpoint: median survival time, dose: 100.0 mg/kg/injection, schedule: Q01DX009 (ip), vehicle: saline with Tween-80) 3 of 6; (T/C endpoint: median survival time, dose: 200.0 mg/kg/injection, schedule: Q01DX009 (ip), vehicle: saline with Tween-80) 3 of 6; under setting [8], 0 of 6.
As for `C=CCN(CC=C)N=Nc1ccc(C(N)=O)cc1`, the survivor count is, setting by setting: (T/C endpoint: mean survival time, dose: 266.0 mg/kg/injection, schedule: Q01DX009 (ip), vehicle: Klucel (hydroxypropylcellulose) (HPC)) 2 of 6; (T/C endpoint: mean survival time, dose: 400.0 mg/kg/injection, schedule: Q01DX009 (ip), vehicle: Klucel (hydroxypropylcellulose) (HPC)) 1 of 6.
With `C/C(=N/O)c1cc(CN(C)C)oc1C`, the survivor count under setting [9] is 3 of 6.
Take `S=C([S-])N1CCCCC1.S=C([S-])N1CCCCC1.[Zn]`: under “T/C endpoint: mean survival time, dose: 75.0 mg/kg/injection, schedule: Q01DX009 (ip), vehicle: saline”, the survivor count is reported as 1 of 6.
Take `COc1ccc(/C=N/NC(=O)CNC(=O)Nc2cccc(Cl)c2)cc1`: the survivor count under setting [10] is on record as 3 of 3.
Still for that read-out and setting: the same measure for `Cc1cccc(SC(=O)Nc2ccc(Cl)cc2C)c1`: 3 of 3.
`OCC1OC(n2cc(I)c3c2ncn2ccnc32)C(O)C1O` (stereo not drawn): the survivor count is, setting by setting: (T/C endpoint: mean survival time, dose: 25.0 mg/kg/injection, schedule: Q01DX005 (ip), vehicle: water) 1 of 6; (T/C endpoint: mean survival time, dose: 50.0 mg/kg/injection, schedule: Q01DX005 (ip), vehicle: water) 0 of 4; (T/C endpoint: mean survival time, dose: 100.0 mg/kg/injection, schedule: Q01DX005 (ip), vehicle: water) 0 of 4; (T/C endpoint: mean survival time, dose: 200.0 mg/kg/injection, schedule: Q01DX005 (ip), vehicle: water) 0 of 4.
